Reference: PubChem BioAssay AID743121 (NCATS, 2013)
Here is an unselected part of about 26,000 reagents. 167 of them (0.63%) were called active. 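Calls are per gene from RSA p-values that are not deposited; an individual active-marked siRNA can sensitise only weakly.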 Entries without a mark were called inactive. The numbers tell different reagents against one gene apart.

Screen: 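Genes whose silencing strengthens cell killing by camptothecin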 (primary screen)
Cells: MDA-MB-231 cells, a human breast cancer line
Reagents: single siRNA against human genes, 20 nM siRNA (0.8 pmol per well)
Duration: 120 h (drug added 48 h after transfection, read 72 h later)
Conditions: camptothecin 20 nM (about EC30) for 72 h; vehicle 0.1% DMSO in parallel plates
Measurement: 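Cell viability by ATP luminescence (CellTiter-Glo) as % of non-targeting siRNA wells, and the log2 ratio of viability without drug over viability with camptothecin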
Reading the numbers: log2 vehicle/camptothecin viability: higher = stronger sensitisation to camptothecin; viability with camptothecin and viability without drug: higher = more viable cells
Call rule: 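Each gene scored by redundant siRNA activity (RSA) over its individual siRNA ratios; a gene is called active at p < 0.001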

| target gene | reagent | log2 vehicle/camptothecin viability | viability with camptothecin (% of control) | viability without drug (% of control) |
| --- | --- | --- | --- | --- |
| METAP1 (methionyl aminopeptidase 1) | 1 | 0.0232 | 77.9 | 79.2 |
| METAP1 (methionyl aminopeptidase 1) | 2 | -0.119 | 107 | 98.7 |
| METAP1 (methionyl aminopeptidase 1) | 3 | -0.0637 | 81.4 | 77.9 |
| METAP1 (methionyl aminopeptidase 1) | 4 | -0.181 | 91.7 | 80.9 |
| BIRC5 (baculoviral IAP repeat containing 5) | 1 | -0.375 | 82 | 63.3 |
| BIRC5 (baculoviral IAP repeat containing 5) | 2 | 0.128 | 74.5 | 81.4 |
| BIRC5 (baculoviral IAP repeat containing 5) | 3 | 0.0745 | 30.2 | 31.8 |
| BIRC5 (baculoviral IAP repeat containing 5) | 4 | -0.0769 | 69.1 | 65.5 |
| ADH4 (alcohol dehydrogenase 4 (class II), pi polypeptide) | 1 | -0.0668 | 98.2 | 93.7 |
| ADH4 (alcohol dehydrogenase 4 (class II), pi polypeptide) | 2 | 0.269 | 59.8 | 72 |
| ADH4 (alcohol dehydrogenase 4 (class II), pi polypeptide) | 3 | -0.283 | 105 | 86.4 |
| PTH2R (parathyroid hormone 2 receptor) | 1 | -0.198 | 54.9 | 47.8 |
| PTH2R (parathyroid hormone 2 receptor) | 2 | 0.53 | 13.2 | 19 |
| PTH2R (parathyroid hormone 2 receptor) | 3 | -0.577 | 111 | 74.3 |
| PTH2R (parathyroid hormone 2 receptor) | 4 | -0.362 | 52.2 | 40.6 |
| CALM1 (calmodulin 1) | 1 | -0.13 | 120 | 109 |
| CALM1 (calmodulin 1) | 2 | -0.594 | 130 | 85.9 |
| CALM1 (calmodulin 1) | 3 | 0.401 | 68.8 | 90.8 |
| CALM1 (calmodulin 1) | 4 | -0.445 | 90.3 | 66.3 |
| DHRS7B (dehydrogenase/reductase 7B) | 1 | -0.524 | 81.2 | 56.5 |
| DHRS7B (dehydrogenase/reductase 7B) | 2 | -0.314 | 88.3 | 71 |
| DHRS7B (dehydrogenase/reductase 7B) | 3 | -0.419 | 75.2 | 56.2 |
| DHRS7B (dehydrogenase/reductase 7B) | 4 | -0.138 | 72 | 65.4 |
| NUAK1 (NUAK family kinase 1) | 1 | -0.285 | 58.1 | 47.7 |
| NUAK1 (NUAK family kinase 1) | 2 | -0.0214 | 105 | 103 |
| NUAK1 (NUAK family kinase 1) | 3 | -0.305 | 123 | 99.5 |
| NUAK1 (NUAK family kinase 1) | 4 | 0.315 | 57.4 | 71.5 |
| NRBP2 (nuclear receptor binding protein 2) | 1 | -0.0838 | 85.2 | 80.4 |
| NRBP2 (nuclear receptor binding protein 2) | 2 | -0.634 | 50.4 | 32.5 |
| NRBP2 (nuclear receptor binding protein 2) | 3 | -0.022 | 101 | 99.7 |
| NRBP2 (nuclear receptor binding protein 2) | 4 | -0.198 | 79.4 | 69.2 |
| MEFV (MEFV innate immunity regulator, pyrin) | 1 | 0.215 | 109 | 126 |
| MEFV (MEFV innate immunity regulator, pyrin) | 2 | 0.042 | 62.5 | 64.3 |
| MEFV (MEFV innate immunity regulator, pyrin) | 3 | -0.399 | 101 | 76.9 |

Single entries from the entries so far.
For “viability with camptothecin (% of control)”, NRBP2 (nuclear receptor binding protein 2) #3 reads 101
Under “viability with camptothecin (% of control)”, METAP1 (methionyl aminopeptidase 1) #3 has 81.4
Result of NUAK1 (NUAK family kinase 1) #2 under “viability without drug (% of control)”: 103
CALM1 (calmodulin 1) #4, log2 vehicle/camptothecin viability = -0.445
NUAK1 (NUAK family kinase 1) #3, viability with camptothecin (% of control): 123

The listing continues:
| target gene | reagent | log2 vehicle/camptothecin viability | viability with camptothecin (% of control) | viability without drug (% of control) |
| --- | --- | --- | --- | --- |
| PPP2R2C (protein phosphatase 2 regulatory subunit Bgamma) | 1 | -0.275 | 79 | 65.2 |
| PPP2R2C (protein phosphatase 2 regulatory subunit Bgamma) | 2 | -0.0718 | 94.6 | 90 |
| PPP2R2C (protein phosphatase 2 regulatory subunit Bgamma) | 3 | -0.0499 | 101 | 97.3 |
| PPP2R2C (protein phosphatase 2 regulatory subunit Bgamma) | 4 | -0.309 | 118 | 95.5 |
| DEDD (death effector domain containing) | 1 | -0.324 | 91.8 | 73.3 |
| DEDD (death effector domain containing) | 2 | 0.246 | 49.7 | 59 |
| DEDD (death effector domain containing) | 3 | -0.0402 | 90 | 87.5 |
| IMMP2L (inner mitochondrial membrane peptidase subunit 2) | 1 | 0.363 | 15 | 19.3 |
| IMMP2L (inner mitochondrial membrane peptidase subunit 2) | 2 | -0.125 | 102 | 93.3 |
| IMMP2L (inner mitochondrial membrane peptidase subunit 2) | 3 | 0.759 | 78.8 | 133 |
| SLC7A5P1 | 1 | -0.466 | 115 | 83.5 |
| SLC7A5P1 | 2 | -0.14 | 107 | 97.1 |
| SLC7A5P1 | 3 | 0.411 | 10.8 | 14.4 |
| WDR46 (WD repeat domain 46) | 1 | -0.466 | 89.5 | 64.8 |
| WDR46 (WD repeat domain 46) | 2 | -0.0904 | 80 | 75.2 |
| WDR46 (WD repeat domain 46) | 3 | -0.297 | 75.3 | 61.3 |
| WDR46 (WD repeat domain 46) | 4 | -0.377 | 65.6 | 50.5 |
| BAZ2A (bromodomain adjacent to zinc finger domain 2A) | 1 | -0.123 | 84.1 | 77.2 |
| BAZ2A (bromodomain adjacent to zinc finger domain 2A) | 2 | 0.482 | 35.8 | 50.1 |
| BAZ2A (bromodomain adjacent to zinc finger domain 2A) | 3 | 0.341 | 42 | 53.1 |
| BAZ2A (bromodomain adjacent to zinc finger domain 2A) | 4 | -0.253 | 78.5 | 65.8 |
| GCNT2 (glucosaminyl (N-acetyl) transferase 2 (I blood group)) | 1 | 1.01 | 46.1 | 92.6 |
| GCNT2 (glucosaminyl (N-acetyl) transferase 2 (I blood group)) | 2 | 0.00587 | 82.5 | 82.9 |
| GCNT2 (glucosaminyl (N-acetyl) transferase 2 (I blood group)) | 3 | 0.298 | 30 | 36.8 |
| LONRF2 (LON peptidase N-terminal domain and ring finger 2) | 1 | 0.0635 | 64.5 | 67.5 |
| LONRF2 (LON peptidase N-terminal domain and ring finger 2) | 2 | -0.075 | 79.4 | 75.4 |
| LONRF2 (LON peptidase N-terminal domain and ring finger 2) | 3 | -0.113 | 84.4 | 78.1 |
| LONRF2 (LON peptidase N-terminal domain and ring finger 2) | 4 | -0.465 | 72.4 | 52.4 |
| KCNJ10 (potassium inwardly rectifying channel subfamily J member 10) | 1 | -0.366 | 55.7 | 43.2 |
| KCNJ10 (potassium inwardly rectifying channel subfamily J member 10) | 2 | 0.355 | 62.1 | 79.5 |
| KCNJ10 (potassium inwardly rectifying channel subfamily J member 10) | 3 | 0.045 | 87.6 | 90.4 |
| KCNJ10 (potassium inwardly rectifying channel subfamily J member 10) | 4 | -0.224 | 55.1 | 47.2 |
| CDH11 (cadherin 11) | 1 | -0.347 | 89.6 | 70.4 |
| CDH11 (cadherin 11) | 2 | -0.247 | 114 | 96.4 |
| CDH11 (cadherin 11) | 3 | 0.0897 | 54.9 | 58.5 |
| CDH11 (cadherin 11) | 4 | -0.171 | 104 | 92.4 |
